{
  "sequences": {"note": "By UniProt entry, the sequences of proteins in these tests, tags left out.", "UniProt O95292": "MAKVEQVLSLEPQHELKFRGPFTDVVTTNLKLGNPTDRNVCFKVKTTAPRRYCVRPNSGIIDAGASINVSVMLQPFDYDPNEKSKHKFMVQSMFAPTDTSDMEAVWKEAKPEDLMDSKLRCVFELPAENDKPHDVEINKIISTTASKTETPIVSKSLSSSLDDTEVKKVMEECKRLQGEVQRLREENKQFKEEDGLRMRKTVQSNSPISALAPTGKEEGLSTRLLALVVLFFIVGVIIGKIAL"},
  "source": "paper PMC6629115",
  "key": {"[1]": {"biological_target": "T1, hHCN4 (bait pBT3-hHCN4) (human) (UniProt Q9Y3Q4)", "T1 sequence": "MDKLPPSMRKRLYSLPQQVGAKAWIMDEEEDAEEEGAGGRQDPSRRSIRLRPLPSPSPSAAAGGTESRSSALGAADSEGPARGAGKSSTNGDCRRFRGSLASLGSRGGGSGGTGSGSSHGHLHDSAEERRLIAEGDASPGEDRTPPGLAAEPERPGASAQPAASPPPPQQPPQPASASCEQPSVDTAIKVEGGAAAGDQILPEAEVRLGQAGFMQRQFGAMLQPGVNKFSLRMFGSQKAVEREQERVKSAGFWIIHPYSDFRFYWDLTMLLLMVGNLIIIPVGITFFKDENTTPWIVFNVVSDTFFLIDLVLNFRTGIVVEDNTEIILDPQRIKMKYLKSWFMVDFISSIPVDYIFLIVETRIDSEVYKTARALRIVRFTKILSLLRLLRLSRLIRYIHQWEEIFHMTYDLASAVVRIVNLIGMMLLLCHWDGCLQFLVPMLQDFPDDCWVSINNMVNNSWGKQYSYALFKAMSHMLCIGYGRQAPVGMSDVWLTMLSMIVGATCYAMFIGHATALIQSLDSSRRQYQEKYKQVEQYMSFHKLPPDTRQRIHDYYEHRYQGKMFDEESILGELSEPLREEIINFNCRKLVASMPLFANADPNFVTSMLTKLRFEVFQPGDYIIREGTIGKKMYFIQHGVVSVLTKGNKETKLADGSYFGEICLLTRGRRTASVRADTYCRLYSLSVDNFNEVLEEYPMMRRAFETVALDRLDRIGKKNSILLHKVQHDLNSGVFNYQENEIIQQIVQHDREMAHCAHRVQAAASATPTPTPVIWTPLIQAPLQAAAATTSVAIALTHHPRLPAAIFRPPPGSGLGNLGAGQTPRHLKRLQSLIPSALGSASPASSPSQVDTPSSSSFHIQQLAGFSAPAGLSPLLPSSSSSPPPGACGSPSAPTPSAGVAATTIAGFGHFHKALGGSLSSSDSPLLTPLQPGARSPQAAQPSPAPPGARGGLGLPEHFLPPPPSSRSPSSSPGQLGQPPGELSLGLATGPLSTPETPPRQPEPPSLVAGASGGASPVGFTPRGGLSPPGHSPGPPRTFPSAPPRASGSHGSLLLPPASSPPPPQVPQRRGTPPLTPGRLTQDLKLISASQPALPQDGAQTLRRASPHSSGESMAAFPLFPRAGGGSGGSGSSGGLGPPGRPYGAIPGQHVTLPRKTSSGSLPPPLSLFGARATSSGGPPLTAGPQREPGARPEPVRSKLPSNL", "assay": "two-hybrid; split-ubiquitin Y2H direct interaction assay; prey hVAPB in pPR3-N, baits in pBT3 (mHCN2, its truncations, hHCN4); colony growth on minimal medium (-LWHA)"}, "[2]": {"biological_target": "T2, full-length mHCN2 (bait pBT3-mHCN2) (mouse) (UniProt O88703)", "T2 sequence": "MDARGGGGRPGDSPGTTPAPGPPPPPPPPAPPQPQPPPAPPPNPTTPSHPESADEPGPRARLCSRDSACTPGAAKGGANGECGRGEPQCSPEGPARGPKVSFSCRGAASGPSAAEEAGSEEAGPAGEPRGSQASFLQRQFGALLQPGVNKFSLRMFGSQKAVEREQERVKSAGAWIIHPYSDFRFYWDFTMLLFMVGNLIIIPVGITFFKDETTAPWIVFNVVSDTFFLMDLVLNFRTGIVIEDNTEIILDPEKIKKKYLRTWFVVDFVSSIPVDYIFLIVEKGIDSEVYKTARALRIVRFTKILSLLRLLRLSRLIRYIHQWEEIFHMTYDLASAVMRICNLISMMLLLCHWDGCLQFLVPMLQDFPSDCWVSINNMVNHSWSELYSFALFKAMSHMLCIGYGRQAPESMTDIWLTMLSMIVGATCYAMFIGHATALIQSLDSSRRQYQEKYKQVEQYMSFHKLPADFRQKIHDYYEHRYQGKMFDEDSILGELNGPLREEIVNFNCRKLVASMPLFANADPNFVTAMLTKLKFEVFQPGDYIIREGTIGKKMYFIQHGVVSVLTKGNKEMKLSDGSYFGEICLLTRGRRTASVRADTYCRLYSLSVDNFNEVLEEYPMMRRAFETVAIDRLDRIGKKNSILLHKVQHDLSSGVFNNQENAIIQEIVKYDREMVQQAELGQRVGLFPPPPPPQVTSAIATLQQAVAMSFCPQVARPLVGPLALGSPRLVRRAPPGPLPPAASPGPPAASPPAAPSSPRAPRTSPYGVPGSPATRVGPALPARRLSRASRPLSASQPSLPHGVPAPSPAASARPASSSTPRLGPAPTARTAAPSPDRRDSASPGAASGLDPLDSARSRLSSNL", "assay": "two-hybrid; split-ubiquitin Y2H direct interaction assay; prey hVAPB in pPR3-N, baits in pBT3 (mHCN2, its truncations, hHCN4); colony growth on minimal medium (-LWHA)"}},
  "note": "Results are given in words; binding and its absence hold for the method and conditions named. Some binding calls cover weakened binding; strength is not graded here.",
  "data": [
    {"substance": "full-length hVAPB (prey in pPR3-N) (from UniProt O95292 1-243)", "values": [
      {"measurement": "binding", "setting": "[1]", "value": "no binding"},
      {"measurement": "binding", "setting": "[2]", "value": "binds"}
    ]}
  ]
}
